Measurements published in PubChem BioAssay AID1347076 (National Center for Advancing Translational Sciences (NCATS), 2019).
About 13,000 (3.2%) of roughly 400,000 compounds were called active. The inconclusive results got no clear call from the source; some entries with a clear call stand among them for comparison. Calls follow the shape of the dose curve; as a rule, active = well fitted cell-killing curve with a large enough effect; inconclusive = small, poorly fitted or top-dose-only effect, or effect the other way; inactive = flat fitted curve, though single readings scatter. A potency beside an inconclusive call is a rough fit, not a confirmed value. Where a structure was tested more than once in an assay, its records may differ in their call.

Assay: qHTS assay for MDR1-selective chemotherapeutics: Primary screen using the drug-selected MDR subline cells KB-V1; also: nearly all actives have a fitted effect of over 60% in size
Settings: KB-V1 MDR cells viability, CellTiter-Glo, 72 h; series mostly up to 46.1 µM
Method in brief: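 In this primary screen, KB-V1 cells overexpressing P-gp are incubated with library compounds (lowest to highest concentration) for 72 h at 37 degrees C before a luminescent ATP viability read.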
Potency is read from the fitted curve at half-maximal effect.

Compound	Potency
CCN(CC)c1ccc(/C=N/Nc2ccccc2)c(O)c1	inconclusive: 29.1 µM [cytotoxic, single point]
NC1(CO)COC(c2ccccc2)OC1 (stereo not given)	inactive
CC(=O)c1cccc(NC(=O)c2cc(-n3cnnc3)ccc2Cl)c1	inconclusive: 29.1 µM [rising, single point]
COc1ccc(C(=O)c2sc(Nc3ccccc3)nc2N)cc1	active: 13 µM
CC(C)C[C@H]1CNC(=S)N1C[C@H]1CCCN1C[C@H](CC(C)C)N1C[C@H](Cc2ccccc2)N(CCc2ccccc2)C1=S	inconclusive: 16.4 µM [cytotoxic, single point]
OCCN1CCN(CC(O)C(F)(F)F)CC1 (stereo not given)	inconclusive: 29.1 µM [rising, single point]
COC(=O)C1=C(CSc2nc3ccccc3s2)NC(=O)NC1c1ccc(F)cc1 (stereo not given)	inconclusive: 20.6 µM [cytotoxic, partial curve, poor fit]
COc1cc(C(=O)N2c3ccccc3CCC2C)cc(OC)c1OC (stereo not given)	inconclusive: 11.6 µM [cytotoxic, partial curve]
O=C(CSc1nnc(-c2ccco2)o1)c1ccc[nH]1	inactive
Cn1cc(/C=C(\C#N)C(=O)Nc2ccccc2O)c2ccccc21	inactive
CC[C@]12c3[nH]c4cc(-c5ccco5)ccc4c3CCN1C(=O)[C@@H](CC(=O)NCCC1=CCCCC1)C[C@@H]2C(=O)N1CCN(C(=O)c2ccco2)CC1	inactive
CCCCCCC(C)n1cc(C(C)=O)c(=O)n(C)c1=O (stereo not given)	inconclusive: 13 µM [cytotoxic, partial curve, poor fit]
Cc1cccc(-n2ncc3c2CCCC3NC(=O)CCCN2CCCCC2=O)c1C (stereo not given)	inconclusive: 16.4 µM [cytotoxic, single point]
COc1nc(OC)nc(N2CCC(C(=O)NCc3ccco3)CC2)n1	inconclusive: 16.4 µM [cytotoxic, partial curve, poor fit]
Fc1ccc(CN2CCCCCCC2)c(F)c1	inactive
Cc1c(C(=O)O)oc2c1/C(=N\O)CC(C)(C)C2	inconclusive: 23.1 µM [rising, single point]
COC(=O)Cn1c(=NC(=O)c2ccc(S(=O)(=O)N3CCOCC3)cc2)sc2cc(S(N)(=O)=O)ccc21	inconclusive: 5.17 µM [rising, partial curve, poor fit]
Cc1ccc2c(Cl)c(C(=O)NCCCN3CCOCC3)sc2c1	inconclusive: 0.13 µM [cytotoxic, partial curve]
COc1cccc(-c2cnc(C(O)c3cccc(OC)c3)[nH]2)c1 (stereo not given)	inconclusive: 29.1 µM [cytotoxic, single point]
O=C(Nc1cccc(Cl)c1)N(Cc1nc2ccccc2c(=O)[nH]1)C1CCCC1	inconclusive: 29.1 µM [cytotoxic, single point]
CCOC(=O)Cn1c(=O)n(C2CCCCC2)c2nc(-c3c(F)cccc3Cl)nc(C(N)=O)c21	active: 18.4 µM
CN(NC(=O)c1ccc(Cl)cc1)c1cccc(Cl)n1	inconclusive: 18.4 µM [cytotoxic, single point]
COc1cccc2sc(N(C)c3ccccc3)nc12	inconclusive: 25.9 µM [cytotoxic, single point]

Fetched by structure from the list above, two records:
Compound	Potency
CCCCCCC(C)n1cc(C(C)=O)c(=O)n(C)c1=O (stereo not given)	inconclusive: 13 µM [cytotoxic, partial curve, poor fit]
COC(=O)C1=C(CSc2nc3ccccc3s2)NC(=O)NC1c1ccc(F)cc1 (stereo not given)	inconclusive: 20.6 µM [cytotoxic, partial curve, poor fit]

Next part.

Compound	Potency
CCc1cc(-c2[nH]ncc2-c2ccc(OC)cc2)c(O)cc1O	inconclusive: 16.4 µM [cytotoxic, partial curve, poor fit]
O=C(N/N=C/c1ccc([N+](=O)[O-])cc1)c1ccccc1OCc1ccccc1	inactive
N#Cc1nc(COc2ccc(Cl)cc2)oc1NCc1ccc2c(c1)OCO2	inconclusive: 18.4 µM [cytotoxic, partial curve, poor fit]
N#CC1=C(N)NC(SCc2ccc(F)cc2)=C(C#N)C12CCCCC2	inconclusive: 20.6 µM [cytotoxic, partial curve, poor fit]
C/C(=N/Nc1nc(-c2ccccc2)cc(-c2ccc(F)cc2)n1)c1cccc(N)c1	active: 5.17 µM
CC1ON=C(c2ccc(F)cc2)NC1=O (stereo not given)	inactive
Cc1c(N=Nc2ccc(O)cc2)c(=O)n(-c2ccccc2)n1C	inactive
CSC[C@H]1CN(Cc2ccccc2)C(=O)[C@@H]1CC(=O)Nc1ccccc1	inconclusive: 5.17 µM [cytotoxic, partial curve]
COc1cc(/C=C(\NC(C)=O)C(=O)N2CCCCC2)ccc1OC(C)=O	inconclusive: 23.1 µM [rising, partial curve, poor fit]
Cc1ccc(NC(=O)OCCN2CCN(Cc3ccccc3)CCC2=O)cc1C	inconclusive: 10.3 µM [cytotoxic, partial curve, poor fit]
Cc1ccc(NC(=O)CSc2nnc(-c3cccnc3)n2CCN2CCCCC2)cc1	inconclusive: 8.2 µM [cytotoxic, partial curve]
C/C(=N\Nc1cc(N2CCOCC2)nc(C)n1)c1cccc([N+](=O)[O-])c1	inconclusive: 29.1 µM [cytotoxic, single point]
COC(=O)/C=C/S(=O)(=O)c1ccc(NC(C)=O)cc1	inactive
Cc1ccc(CCC(=O)Nc2ncc(Cc3cc(Cl)ccc3Cl)s2)o1	inconclusive: 0.58 µM [cytotoxic, full curve, poor fit]
COc1ccccc1NC(=O)c1cc2ccccc2o/c1=N\O	active: 2.59 µM
CC1(C)CC(=O)C=C(c2ccc(COC(=O)c3ccccc3)cc2)C1=O	inactive
COCCCn1c(-c2ccccc2)nc2ccccc2c1=O	inactive
CCn1c(CSCc2c(Cl)cccc2Cl)n[nH]c1=S	inconclusive: 32.6 µM [cytotoxic, single point]
O=C1CC(=O)OC(c2ccc([N+](=O)[O-])cc2)O1	inconclusive: 29.1 µM [cytotoxic, single point]
CCN(CC)CCNCc1cc(Br)ccc1OCC(=O)NCc1ccccc1	inconclusive: 16.4 µM [cytotoxic, single point]
NC(=O)C1(N2CCCCC2)CCN(c2nc(-c3ccc(Br)cc3)cs2)CC1	active: 23.1 µM
CCOC(=O)[C@]12Cc3c(cc(OC)c(OC)c3OC)[C@H]1N(Cc1ccccc1)C(=O)c1cc(OC)ccc12	inconclusive: 0.731 µM [cytotoxic, full curve, poor fit]
